{"sequences": {"note": "Chains of the proteins cited; added tags and fusions are not shown.", "UniProt Q15788": "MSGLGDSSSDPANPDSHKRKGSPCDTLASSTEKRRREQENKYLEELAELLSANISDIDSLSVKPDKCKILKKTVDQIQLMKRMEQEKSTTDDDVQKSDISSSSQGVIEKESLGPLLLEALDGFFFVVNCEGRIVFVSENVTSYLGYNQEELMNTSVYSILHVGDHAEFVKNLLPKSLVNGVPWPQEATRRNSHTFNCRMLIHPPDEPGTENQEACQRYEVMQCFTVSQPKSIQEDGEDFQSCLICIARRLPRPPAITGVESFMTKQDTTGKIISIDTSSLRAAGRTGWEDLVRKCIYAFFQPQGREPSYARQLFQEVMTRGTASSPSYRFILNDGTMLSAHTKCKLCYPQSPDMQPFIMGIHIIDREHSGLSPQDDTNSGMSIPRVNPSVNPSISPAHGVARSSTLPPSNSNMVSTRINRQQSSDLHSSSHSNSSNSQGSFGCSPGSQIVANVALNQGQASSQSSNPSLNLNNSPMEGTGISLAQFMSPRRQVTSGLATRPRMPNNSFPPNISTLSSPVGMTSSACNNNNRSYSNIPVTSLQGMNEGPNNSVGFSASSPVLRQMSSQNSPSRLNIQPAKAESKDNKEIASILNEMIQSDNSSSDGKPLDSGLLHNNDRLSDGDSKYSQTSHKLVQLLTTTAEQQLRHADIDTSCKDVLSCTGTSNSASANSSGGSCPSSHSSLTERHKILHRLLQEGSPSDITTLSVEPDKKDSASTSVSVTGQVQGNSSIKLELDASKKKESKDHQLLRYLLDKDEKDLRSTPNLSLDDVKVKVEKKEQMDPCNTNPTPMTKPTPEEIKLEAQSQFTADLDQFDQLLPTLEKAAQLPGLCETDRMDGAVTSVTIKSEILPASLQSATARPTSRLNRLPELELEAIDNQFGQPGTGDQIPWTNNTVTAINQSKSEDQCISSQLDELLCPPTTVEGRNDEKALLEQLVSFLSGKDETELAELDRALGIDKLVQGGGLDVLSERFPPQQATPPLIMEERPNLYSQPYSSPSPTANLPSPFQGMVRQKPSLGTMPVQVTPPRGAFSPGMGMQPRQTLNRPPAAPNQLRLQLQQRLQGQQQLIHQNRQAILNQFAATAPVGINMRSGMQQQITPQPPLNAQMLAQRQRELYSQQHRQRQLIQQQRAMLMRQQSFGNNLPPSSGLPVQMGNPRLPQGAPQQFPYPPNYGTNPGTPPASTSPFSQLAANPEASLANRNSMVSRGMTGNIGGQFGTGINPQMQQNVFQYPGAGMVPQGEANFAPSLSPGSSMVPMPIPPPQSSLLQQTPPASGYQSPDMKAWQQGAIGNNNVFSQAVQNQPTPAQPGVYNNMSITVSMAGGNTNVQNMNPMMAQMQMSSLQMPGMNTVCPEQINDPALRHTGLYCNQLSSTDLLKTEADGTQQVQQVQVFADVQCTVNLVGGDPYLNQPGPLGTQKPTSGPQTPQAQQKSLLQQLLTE"}, "source": "paper PMC3110202", "molecular_target": "T1, thyroid hormone receptor beta (TRβ) (human (endogenous in MCF-7)) (UniProt P10828)", "T1 sequence": "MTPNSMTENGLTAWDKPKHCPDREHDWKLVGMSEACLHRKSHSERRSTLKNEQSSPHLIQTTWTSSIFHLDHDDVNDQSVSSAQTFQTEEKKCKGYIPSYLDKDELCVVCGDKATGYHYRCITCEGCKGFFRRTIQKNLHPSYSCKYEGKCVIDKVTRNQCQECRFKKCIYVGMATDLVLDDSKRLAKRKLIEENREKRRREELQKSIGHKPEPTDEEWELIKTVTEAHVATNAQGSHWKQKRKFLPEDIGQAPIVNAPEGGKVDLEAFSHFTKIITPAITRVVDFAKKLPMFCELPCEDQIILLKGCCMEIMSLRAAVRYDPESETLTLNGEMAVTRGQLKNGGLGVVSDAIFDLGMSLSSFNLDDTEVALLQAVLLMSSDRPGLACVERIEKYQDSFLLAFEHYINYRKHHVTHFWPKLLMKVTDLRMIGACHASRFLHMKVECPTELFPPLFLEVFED", "assay": "co-IP; 500 µg of MCF-7 whole cell extract precipitated with TRβ, SRC-1 or normal IgG antibodies, protein A/G plus sepharose beads, Western blot; endogenous proteins; cells with or without overnight 1 µM T3", "note": "These are yes or no findings as the source states them, for the method shown. In cells and extracts the contact can be indirect. Some entries that bind do so weakly or less than the wild type.", "data": [{"substance": "Steroid receptor coactivator (SRC-1) (from UniProt Q15788 1-1441)", "values": [{"measurement": "binding", "result": "binds"}]}]}
